Assay results taken from US20020182656A1.
Results are given in words; binding and its absence hold for the method and conditions named. Some binding calls cover weakened binding; strength is not graded here.

B1: Autophosphorylated human recombinant GNK (enzyme)
chain: MSVLGEYERHCDSINSDFGSESGGCGDSSPGPSASQGPRAGGGAAEQEELHYIPIRVLGRGAFGEATLYRRTEDDSLVVWKEVDLTRLSEKERRDALNEIVILALLQHDNIIAYYNHFMDNTTLLIELEYCNGGNLYDKILRQKDKLFEEEMVVWYLFQIVSAVSCIHKAGILHRDIKTLNIFLTKANLIKLGDYGLAKKLNSEYSMAETLVGTPYYMSPELCQGVKYNFKSDIWAVGCVIFELLTLKRTFDATNPLNLCVKIVQGIRAMEVDSSQYSLELIQMVHSCLDQDPEQRPTADELLDRPLLRKRRREMEEKVTLLNAPTKRPRSSTVTEAPIAVVTSRTSEVYVWGGGKSTPQKLDVIKSGCSARQVCAGNTHFAVVTVEKELYTWVNMQGGTKLHGQLGHGDKASYRQPKHVEKLQGKAIHQVSCGDDFTVCVTDEGQLYAFGSDYYGCMGVDKVAGPEVLEPMQLNFFLSNPVEQVSCGDNHVVVLTRNKEVYSWGCGEYGRLGLDSEEDYYTPQKVDVPKALIIVAVQCGCDGTFLLTQSGKVLACGLNEFNKLGLNQCMSGIINHEAYHEVPYTTSFTLAKQLSFYKIRTIAPGKTHTAAIDERGRLLTFGCNKCGQLGVGNYKKRLGINLLGGPLGGKQVIRVSCGDEFTIAATDDNHIFAWGNGGNGRLAMTPTERPHGSDICTSWPRPIFGSLHHVPDLSCRGWHTILIVEKVLNSKTIRSNSSGLSIGTVFQSSSPGGGGGGGGGEEEDSQQESETPDPSGGFRGTMEADRGMEGLISPTEAMGNSNGASSSCPGWLRKELENAEFIPMPDSPSPLSAAFSESEKDTLPYEELQGLKVASEAPLEHKPQVEASSPRLNPAVTCAGKGTPLTPPACACSSLQVEVERLQGLVLKCLAEQQKLQQENLQIFTQLQKLNKKLEGGQQVGMHSKGTQTAKEEMEMDPKPDLDSDSWCLLGTDSCRPSL
modifications: autophosphorylated (sites not given)
B2: Human recombinant GNK (hu-rGNK) (enzyme)
chain: MSVLGEYERHCDSINSDFGSESGGCGDSSPGPSASQGPRAGGGAAEQEELHYIPIRVLGRGAFGEATLYRRTEDDSLVVWKEVDLTRLSEKERRDALNEIVILALLQHDNIIAYYNHFMDNTTLLIELEYCNGGNLYDKILRQKDKLFEEEMVVWYLFQIVSAVSCIHKAGILHRDIKTLNIFLTKANLIKLGDYGLAKKLNSEYSMAETLVGTPYYMSPELCQGVKYNFKSDIWAVGCVIFELLTLKRTFDATNPLNLCVKIVQGIRAMEVDSSQYSLELIQMVHSCLDQDPEQRPTADELLDRPLLRKRRREMEEKVTLLNAPTKRPRSSTVTEAPIAVVTSRTSEVYVWGGGKSTPQKLDVIKSGCSARQVCAGNTHFAVVTVEKELYTWVNMQGGTKLHGQLGHGDKASYRQPKHVEKLQGKAIHQVSCGDDFTVCVTDEGQLYAFGSDYYGCMGVDKVAGPEVLEPMQLNFFLSNPVEQVSCGDNHVVVLTRNKEVYSWGCGEYGRLGLDSEEDYYTPQKVDVPKALIIVAVQCGCDGTFLLTQSGKVLACGLNEFNKLGLNQCMSGIINHEAYHEVPYTTSFTLAKQLSFYKIRTIAPGKTHTAAIDERGRLLTFGCNKCGQLGVGNYKKRLGINLLGGPLGGKQVIRVSCGDEFTIAATDDNHIFAWGNGGNGRLAMTPTERPHGSDICTSWPRPIFGSLHHVPDLSCRGWHTILIVEKVLNSKTIRSNSSGLSIGTVFQSSSPGGGGGGGGGEEEDSQQESETPDPSGGFRGTMEADRGMEGLISPTEAMGNSNGASSSCPGWLRKELENAEFIPMPDSPSPLSAAFSESEKDTLPYEELQGLKVASEAPLEHKPQVEASSPRLNPAVTCAGKGTPLTPPACACSSLQVEVERLQGLVLKCLAEQQKLQQENLQIFTQLQKLNKKLEGGQQVGMHSKGTQTAKEEMEMDPKPDLDSDSWCLLGTDSCRPSL

Key:
[1] = target: Autophosphorylated human recombinant GNK (human) (UniProt Q8TD19); experiment: self-association; Superdex 200 size exclusion chromatography
[2] = target: Autophosphorylated human recombinant GNK (human) (UniProt Q8TD19); experiment: self-association; SDS-PAGE time course after autophosphorylation
[3] = target: Human recombinant GNK (hu-rGNK) (human) (UniProt Q8TD19); experiment: self-association; Superdex 200 size exclusion chromatography

Row | Binder | binding [1] | binding [2] | binding [3]
1 | B1 | binds | binds | 
2 | B2 |  |  | binds
